Only a part is listed here, and it is no random draw. At the low end of the ranking the order means little.

Holding throughout (test): DAPPL (digital affinity profiling via proximity ligation, sequencing)
Common to all, as to settings: 10 mM Tris-HCl pH 7.5, 50 mM NaCl, 1 mM DTT, 4% glycerol, room temperature, 30 min; GST-TFs on glutathione beads, 16-mer random dsDNA library, 0.1% …; high values mean tight binding; double strand, one strand shown; scale: fold enrichment (6-mer frequency, TF over GST control)

The target in test [1] is T1, ELK1 (UniProt P19419).
T1 sequence: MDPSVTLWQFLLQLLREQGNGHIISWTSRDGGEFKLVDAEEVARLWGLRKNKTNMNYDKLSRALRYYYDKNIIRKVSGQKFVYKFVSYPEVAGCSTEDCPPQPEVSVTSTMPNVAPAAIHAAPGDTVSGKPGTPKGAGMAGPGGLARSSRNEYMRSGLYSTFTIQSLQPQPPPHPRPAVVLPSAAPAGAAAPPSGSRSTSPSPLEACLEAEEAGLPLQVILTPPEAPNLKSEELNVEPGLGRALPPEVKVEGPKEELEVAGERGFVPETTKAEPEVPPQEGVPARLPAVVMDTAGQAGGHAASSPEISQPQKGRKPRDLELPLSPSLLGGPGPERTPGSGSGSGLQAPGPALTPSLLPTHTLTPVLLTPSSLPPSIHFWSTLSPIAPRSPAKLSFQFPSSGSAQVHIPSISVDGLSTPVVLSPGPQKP

Test [2] addresses T2, ELK3 (UniProt P41970).
T2 sequence: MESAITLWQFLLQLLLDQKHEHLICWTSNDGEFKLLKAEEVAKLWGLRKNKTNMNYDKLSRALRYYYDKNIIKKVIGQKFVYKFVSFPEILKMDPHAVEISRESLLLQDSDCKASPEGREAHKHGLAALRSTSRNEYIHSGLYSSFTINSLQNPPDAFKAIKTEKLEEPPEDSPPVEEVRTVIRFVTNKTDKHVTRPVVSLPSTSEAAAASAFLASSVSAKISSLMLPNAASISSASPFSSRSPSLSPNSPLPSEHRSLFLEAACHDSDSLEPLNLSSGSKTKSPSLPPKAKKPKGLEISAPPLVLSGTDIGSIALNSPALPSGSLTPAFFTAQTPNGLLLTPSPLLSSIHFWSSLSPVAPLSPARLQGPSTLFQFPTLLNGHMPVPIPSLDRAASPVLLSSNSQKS

Test [3] addresses T3, SPIC (UniProt Q8N5J4).
T3 sequence: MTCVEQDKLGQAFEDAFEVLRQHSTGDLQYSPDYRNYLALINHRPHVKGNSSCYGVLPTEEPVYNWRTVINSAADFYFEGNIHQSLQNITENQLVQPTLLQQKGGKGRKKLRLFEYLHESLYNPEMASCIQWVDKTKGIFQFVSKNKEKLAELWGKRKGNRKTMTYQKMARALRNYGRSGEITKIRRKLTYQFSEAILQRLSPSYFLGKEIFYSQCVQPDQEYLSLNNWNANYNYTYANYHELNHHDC

For test [4], the target named is T4, ETS2 (UniProt P15036).
T4 sequence: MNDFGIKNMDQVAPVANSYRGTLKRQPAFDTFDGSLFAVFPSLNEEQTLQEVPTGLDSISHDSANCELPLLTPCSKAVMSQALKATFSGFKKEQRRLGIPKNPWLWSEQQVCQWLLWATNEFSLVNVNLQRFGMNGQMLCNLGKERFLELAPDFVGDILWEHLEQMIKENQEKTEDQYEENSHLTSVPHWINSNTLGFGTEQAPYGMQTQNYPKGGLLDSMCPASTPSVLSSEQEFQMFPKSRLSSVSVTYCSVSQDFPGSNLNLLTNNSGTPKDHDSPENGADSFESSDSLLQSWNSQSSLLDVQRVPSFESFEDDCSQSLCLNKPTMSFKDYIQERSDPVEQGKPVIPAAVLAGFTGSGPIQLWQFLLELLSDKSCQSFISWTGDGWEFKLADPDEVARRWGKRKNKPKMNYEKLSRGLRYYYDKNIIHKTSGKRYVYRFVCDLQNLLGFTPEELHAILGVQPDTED

Test [5] has as its target T5, ETV3 (UniProt P41162-2).
T5 sequence: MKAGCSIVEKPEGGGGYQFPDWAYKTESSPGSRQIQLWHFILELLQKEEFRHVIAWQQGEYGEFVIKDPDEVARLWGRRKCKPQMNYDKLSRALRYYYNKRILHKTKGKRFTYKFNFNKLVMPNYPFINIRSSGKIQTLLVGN

In the case of GATTGT, the binding signal was found to be 0.878 in test [1]; 0.876 in test [2]; 0.787 in test [3]; 0.845 in test [4]; 0.849 in test [5].
For AAGGGG, in that order: 0.908, 1.05, 0.945, 0.93 and 0.92.
For GGTCAT, in that order: 0.885, 0.847, 0.709, 0.873 and 0.85.
For GTGATC, in that order: 0.81, 0.832, 0.699, 0.859 and 0.805.
Consider GGCGTG, for which the binding signal in test [1] was determined as 0.341; in test [2], 0.345; in test [3], 0.337; in test [4] it was 0.319; in test [5], 0.305.
For GGGTGG, in that order: 0.811, 0.792, 0.891, 0.765 and 0.759.
For GCACCA, in that order: 0.855, 0.952, 0.977, 0.807 and 0.837.
For TTGTCG, in that order: 0.842, 0.801, 0.84, 0.81 and 0.798.
As to GGAGTC, the binding signal amounted to 0.219 in test [1]; 0.265 in test [2]; 0.217 in test [3]; 0.227 in test [4]; 0.211 in test [5].
With GACGGG, the binding signal in test [1] came to 0.388; in test [2] it was 0.459; in test [3] it was 0.451; in test [4] it was 0.434; in test [5] it was 0.424.
For GCAAGT, in that order: 0.809, 0.896, 0.728, 0.877 and 0.856.
For GTCAGG, in that order: 0.534, 0.54, 0.544, 0.54 and 0.525.
In the case of GACACA, the binding signal came to 0.955 in test [1]; 0.922 in test [2]; 0.844 in test [3]; 0.962 in test [4]; 0.888 in test [5].
On to CACGGG, for which the binding signal was 0.785 in test [1]; 0.817 in test [2]; 0.782 in test [3]; 0.808 in test [4]; 0.749 in test [5].
For GGTGTA, in that order: 0.902, 0.837, 0.942, 0.9 and 0.831.
For ACGGAG, in that order: 0.345, 0.386, 0.307, 0.358 and 0.379.
For GATCAG, the binding signal in test [1] came to 0.79; in test [2] it was 0.808; in test [3] it was 0.737; in test [4] it was 0.803; in test [5], 0.787.
For TAGTGA, in that order: 0.563, 0.505, 0.498, 0.581 and 0.569.
For CAGAGT, in that order: 0.608, 0.604, 0.617, 0.652 and 0.618.
For GGGGCC, in that order: 0.552, 0.55, 0.488, 0.576 and 0.605.
As for GTCAGT, the binding signal in test [1] came out at 0.602; in test [2], 0.586; in test [3], 0.595; in test [4], 0.647; in test [5], 0.652.
Turning to GAGTTC, the binding signal in test [1] stood at 0.771; in test [2], 0.85; in test [3], 0.767; in test [4] it was 0.764; in test [5], 0.713.
In the case of TGGACG, the binding signal came to 0.782 in test [1]; 0.807 in test [2]; 0.933 in test [3]; 0.826 in test [4]; 0.826 in test [5].
With GGCGCC, the binding signal in test [1] amounted to 0.666; in test [2], 0.801; in test [3], 0.763; in test [4], 0.689; in test [5], 0.65.
For the sequence GGGCAG, the binding signal in test [1] was determined as 0.614; in test [2] it was 0.588; in test [3] it was 0.514; in test [4], 0.582; in test [5], 0.623.
Take CTGTCG: the binding signal in test [1] amounted to 0.579; in test [2] it was 0.527; in test [3], 0.618; in test [4] it was 0.52; in test [5] it was 0.483.
As to GACCCT, the binding signal in test [1] came to 0.889; in test [2] it was 0.988; in test [3] it was 0.888; in test [4] it was 0.836; in test [5], 0.903.
For CCGTTG, in that order: 0.92, 0.981, 0.861, 0.837 and 0.859.
For GCATGT, in that order: 0.773, 0.705, 0.895, 0.735 and 0.788.
With GTTAGT, the binding signal in test [1] came to 0.831; in test [2], 0.8; in test [3], 0.722; in test [4] it was 0.808; in test [5], 0.896.
For CGTAGG, in that order: 0.688, 0.719, 0.846, 0.679 and 0.678.
For TGAAGT, in that order: 0.803, 0.651, 0.805, 0.765 and 0.78.
For CTAGTC, in that order: 0.759, 0.725, 0.839, 0.8 and 0.709.
GGGTCA: the binding signal in test [1] stood at 0.708; in test [2] it was 0.775; in test [3], 0.701; in test [4] it was 0.683; in test [5] it was 0.705.
For AGTCGT, in that order: 0.411, 0.426, 0.393, 0.427 and 0.405.
For GCTTGA, in that order: 0.909, 0.799, 0.922, 0.886 and 0.857.
For ATGAGT, in that order: 0.733, 0.798, 0.859, 0.703 and 0.673.
As to AGCGGA, the binding signal in test [1] was 0.794; in test [2], 0.83; in test [3] it was 0.794; in test [4] it was 0.832; in test [5], 0.829.
On to GTGGTG, for which the binding signal was 0.896 in test [1]; 0.869 in test [2]; 0.943 in test [3]; 0.907 in test [4]; 0.958 in test [5].
For GACGTG, in that order: 0.335, 0.342, 0.355, 0.355 and 0.347.
For CGGAGA, in that order: 0.203, 0.237, 0.2, 0.211 and 0.209.
For GTTGTG, the binding signal was determined as 0.925 in test [1]; 0.857 in test [2]; 0.954 in test [3]; 0.83 in test [4]; 0.88 in test [5].
As for GCGGTA, the binding signal came out at 0.828 in test [1]; 0.651 in test [2]; 0.845 in test [3]; 0.714 in test [4]; 0.781 in test [5].
On to TCAGTC, for which the binding signal in test [1] came to 0.603; in test [2], 0.692; in test [3], 0.638; in test [4], 0.597; in test [5], 0.58.
For CGCGGG, in that order: 0.738, 0.798, 0.72, 0.794 and 0.791.
For AGGATC, the binding signal in test [1] worked out at 0.906; in test [2], 0.917; in test [3], 0.877; in test [4], 0.876; in test [5], 0.808.
For CCGTCG, in that order: 0.892, 0.819, 0.686, 0.833 and 0.789.
For GGGCGG, in that order: 0.422, 0.442, 0.466, 0.44 and 0.423.
In the case of GCGAGC, the binding signal came out at 0.827 in test [1]; 0.946 in test [2]; 0.814 in test [3]; 0.875 in test [4]; 0.927 in test [5].
As to GTCTGA, the binding signal stood at 0.75 in test [1]; 0.735 in test [2]; 0.839 in test [3]; 0.777 in test [4]; 0.751 in test [5].
For CATGGA, in that order: 0.841, 0.853, 0.929, 0.9 and 0.872.
Regarding GGGCCA, the binding signal is 0.694 in test [1]; 0.657 in test [2]; 0.706 in test [3]; 0.69 in test [4]; 0.749 in test [5].
For CGTCGT, in that order: 0.921, 0.717, 0.876, 0.875 and 0.971.
On to AAGGAG, for which the binding signal in test [1] stood at 0.341; in test [2], 0.365; in test [3], 0.376; in test [4] it was 0.347; in test [5], 0.343.
For CGCTGA, in that order: 0.875, 0.843, 0.911, 0.759 and 0.945.
For TGAGGC, in that order: 0.49, 0.481, 0.427, 0.441 and 0.468.
For GTCCGT, in that order: 0.529, 0.533, 0.505, 0.522 and 0.531.
With TGAGCG, the binding signal in test [1] is 0.646; in test [2], 0.642; in test [3] it was 0.571; in test [4], 0.621; in test [5], 0.618.
For GAGCGC, in that order: 0.625, 0.673, 0.693, 0.578 and 0.626.
For AGGGCA, in that order: 0.855, 0.807, 0.692, 0.869 and 0.845.

Values taken from publication PMC7862700.
